The target of this series is Hsf1 (heat-activated trimer) (Homo sapiens) (UniProt Q00613). Nature of the series: fluorescence anisotropy. The following applies: global fit for fully active trimer, Hsf1 pre-incubated 10 min at 30-42 C; Hsf1-buffer: 25 mM Hepes pH 7.4, 150 mM NaCl, 10% glycerol, 2 mM DTT; binding at room temperature after 10 min pre-incubation at the stated temperature; recombinant protein; protein details: 6xHis-SUMO removed by Ulp1; label: 5'-Alexa Fluor 488. A general note: In fluorescence polarisation assays a small probe gives low polarisation when free and higher when bound to something large.

By UniProt entry, the sequences of proteins in these tests, tags left out. Where a name states a change or a piece, a line headed by the entry shows the natural chain unless it says otherwise.
UniProt Q00613: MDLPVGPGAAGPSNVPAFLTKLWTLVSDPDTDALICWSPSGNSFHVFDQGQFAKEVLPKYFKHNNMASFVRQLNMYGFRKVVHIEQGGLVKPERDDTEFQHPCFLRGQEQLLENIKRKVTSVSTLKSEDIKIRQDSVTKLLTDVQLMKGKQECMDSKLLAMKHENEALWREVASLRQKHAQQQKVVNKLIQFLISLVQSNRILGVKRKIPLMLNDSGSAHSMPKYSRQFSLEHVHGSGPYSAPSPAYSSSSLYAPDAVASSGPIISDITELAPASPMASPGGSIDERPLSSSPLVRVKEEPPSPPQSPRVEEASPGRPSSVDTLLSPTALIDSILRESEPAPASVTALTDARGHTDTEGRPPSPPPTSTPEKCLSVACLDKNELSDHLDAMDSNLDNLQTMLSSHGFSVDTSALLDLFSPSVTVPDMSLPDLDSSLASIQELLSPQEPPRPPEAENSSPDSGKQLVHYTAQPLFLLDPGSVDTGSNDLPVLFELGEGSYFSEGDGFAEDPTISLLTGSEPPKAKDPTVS

This note sets out measurements from article PMC4775227, “Molecular mechanism of thermosensory function of human heat shock transcription factor Hsf1” (eLife, 2016).

The exact form of at least one protein or probe is not confirmed.

One may read the Kd as the free concentration of one partner at which half of the binding sites on the other are occupied at equilibrium, for simple one-to-one binding. “CCCCTTCCCGAATATTCCCCC (double strand) [HSE-DNA (three HSEs), Alexa 488]”: the Kd worked out at 1.1 nM.
